Consider 2 compounds from patent US5958445A, “Oral Formulations of S(+)-etodolac” (priority 1998, dated 1999).

The data set has as its system taste receptors of the recipients mouth. In words: Taste (organoleptic acceptability). To be noted: S(+) form: if it is not solubilized. The text has this:
This invention relates to novel formulations of etodolac, also known as etodolac acid. More particularly, this invention relates to organoleptically acceptable oral formulations utilizing S(+)-etodolac. For the purposes of this description, organoleptically acceptable compounds, materials and formulations are those which can contact the taste receptors of the recipients mouth, particularly those in which the active ingredient can contact the taste receptors, and which are generally acceptable to the senses of the recipient, particularly the sense of taste.

For the compound `CCc1cccc2c3c([nH]c12)[C@](CC)(CC(=O)O)OCC3` [S(+)-etodolac, S(+) 1,8-diethyl-1,3,4,9-tetrahydropyrano[3,4-b]indole-1-acetic acid], the taste result is listed as “does not contain the unpleasant, bitter taste of the racemic etodolac”. In the case of `CCc1cccc2c3c([nH]c12)C(CC)(CC(=O)O)OCC3` (racemic) [etodolac, (±) 1,8-diethyl-1,3,4,9-tetrahydropyrano[3,4-b]indole-1-acetic acid] it was “unpleasant, bitter taste”.
